Data as given in PubChem BioAssay AID1508588 (Peter MacCallum Cancer Centre, 2020)
Assay: 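Which gene losses make BRAF-mutant melanoma cells more responsive to vemurafenib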 (primary screen). Cell system: human WM266.4 melanoma cells (BRAF V600 mutant). Reagent: siRNA pool against human genes, 40 nM. Time to read-out: 96 h from transfection to read-out. Conditions: vemurafenib 300 nM (about IC25), added 48 h after transfection, for 48 h; comparison arm got DMSO vehicle only. Measured: 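Cell gain (DAPI nuclei at end minus before drug, mean of two replicates) and medium lactate by absorbance per cell, both as ratio to non-targeting siRNA, also grouped into fold-change classes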. Direction: cell gain with vemurafenib: higher = more cell gain than with non-targeting siRNA; lactate per cell with vemurafenib: higher = more lactate made per cell. Hit rule: 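Enhancement is called by pairing each knock-down's vehicle-arm and drug-arm fold-change classes for viability or glycolysis; which class combinations qualify is not given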. Calls: active = enhances vemurafenib effect; inactive = no enhancement seen.
Here is one part, drawn at random, of about 18,000 reagents tested. 790 of all reagents (4.4%) were called active. 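Calls rest on a combination of fold-change classes in drug and vehicle arms, not all shown here.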 A reagent listed more than once was tested more than once; the source does not tell the runs apart.

cell gain with vemurafenib	lactate per cell with vemurafenib	Outcome	gene
0.55	0.82	inactive	CTTNBP2 (GeneID 83992)
0.85	1.23	inactive	DDX39B (GeneID 7919)
0.75	1.25	inactive	CD58 (GeneID 965)
0.83	0.36	inactive	SLC15A3 (GeneID 51296)
0.69	0.72	inactive	SOX8 (GeneID 30812)
0.65	0.66	inactive	RAB28 (GeneID 9364)
0.31	1.05	inactive	STAC (GeneID 6769)
0.54	0.38	inactive	ARF6 (GeneID 382)
0.93	0.78	inactive	PRDX6 (GeneID 9588)
1.04	0.86	inactive	TSHR (GeneID 7253)
0.2	1.84	inactive	FOXD4L4 (GeneID 349334)
0.39	1.23	inactive	FSCN3 (GeneID 29999)
0.89	0.58	inactive	LRPAP1 (GeneID 4043)
0.69	0.58	inactive	PTCHD3 (GeneID 374308)
0.56	0.72	inactive	C6orf15 (GeneID 29113)
0.28	1.81	inactive	RRP9 (GeneID 9136)
0.58	0.96	inactive	MTMR6 (GeneID 9107)
0.78	0.82	inactive	ITGB1BP2 (GeneID 26548)
0.68	1.08	inactive	RBP5 (GeneID 83758)
0.5	1.98	inactive	PECR (GeneID 55825)
0.73	0.62	inactive	GRAMD2A (GeneID 196996)
0.6	0.94	inactive	HMMR (GeneID 3161)
0.26	1.73	inactive	STS (GeneID 412)
0.74	0.67	inactive	SULF2 (GeneID 55959)
0.97	0.74	inactive	ADAMTS16 (GeneID 170690)
0.32	0.44	inactive	IL18 (GeneID 3606)
0.28	1.57	inactive	KLHDC3 (GeneID 116138)
0.73	0.87	inactive	ACSS3 (GeneID 79611)
1.22	0.86	inactive	DLX5 (GeneID 1749)
0.92	1.23	inactive	SYAP1 (GeneID 94056)
0.4	1.47	inactive	RAP2C (GeneID 57826)
0.3	0.18	active	ARIH1 (GeneID 25820)
0.69	0.73	active	ARIH1 (GeneID 25820)
0.65	0.6	inactive	NCOA4 (GeneID 8031)
0.69	0.9	inactive	OR56A3 (GeneID 390083)
1.25	0.58	inactive	OPCML (GeneID 4978)
0.66	0.99	inactive	TAFA2 (GeneID 338811)
0.87	1.34	inactive	TUBB6 (GeneID 84617)
0.67	1.09	inactive	TJP1 (GeneID 7082)
0.82	0.47	inactive	BPNT1 (GeneID 10380)
0.71	0.84	inactive	TM2D3 (GeneID 80213)
0.56	0.46	inactive	CWC25 (GeneID 54883)
1.01	1.6	inactive	EAF2 (GeneID 55840)
-0.06	2.02	inactive	SNRNP200 (GeneID 23020)
0.82	0.34	inactive	ZNF136 (GeneID 7695)
0.35	0.9	inactive	PARP6 (GeneID 56965)
0.44	1.69	inactive	ZNF582 (GeneID 147948)
0.83	0.52	inactive	ME2 (GeneID 4200)
0.11	1.4	inactive	TMED4 (GeneID 222068)
0.43	0.97	inactive	ZNF668 (GeneID 79759)
0.49	0.82	inactive	TAS2R45 (GeneID 259291)
0.29	0.92	inactive	WRAP73 (GeneID 49856)
0.37	0.9	inactive	BOD1 (GeneID 91272)
0.18	0.8	active	ZFPM2 (GeneID 23414)
1.03	0.89	inactive	KLF12 (GeneID 11278)
0.63	1.4	inactive	MSTN (GeneID 2660)
0.69	2.18	inactive	TLR1 (GeneID 7096)
0.97	0.6	inactive	LIN7A (GeneID 8825)
0.6	0.64	inactive	PILRB (GeneID 29990)
0.39	0.48	active	SLC12A5 (GeneID 57468)
0.7	0.72	inactive	LZTFL1 (GeneID 54585)
0.98	0.38	inactive	ZBTB45 (GeneID 84878)
0.68	0.92	inactive	SMN1 (GeneID 6606)
0.61	1	inactive	KRTAP4-12 (GeneID 83755)
0.97	0.8	inactive	TRIM41 (GeneID 90933)
0.37	1.01	inactive	CCDC187 (GeneID 399693)
0.78	0.94	inactive	XRN1 (GeneID 54464)
0.53	1.96	inactive	PPP1R16B (GeneID 26051)
0.47	1.18	inactive	TREML4 (GeneID 285852)
0.8	0.79	inactive	LMLN (GeneID 89782)
0.78	0.62	inactive	RHOF (GeneID 54509)
0.68	0.48	inactive	HYDIN (GeneID 54768)
0.53	0.45	inactive	ADAMDEC1 (GeneID 27299)
0.52	1.04	inactive	KRTAP4-7 (GeneID 100132476)
0.71	1.2	inactive	PDLIM1 (GeneID 9124)
0.51	0.76	inactive	DNAJB3P (GeneID 414061)
0.1	1.52	inactive	MAP3K8 (GeneID 1326)
0.6	1.25	inactive	CEP104 (GeneID 9731)
0.78	1.29	inactive	TCP1 (GeneID 6950)
0.94	1.34	inactive	TP53BP1 (GeneID 7158)
0.78	1.04	inactive	CD180 (GeneID 4064)
0.54	0.92	inactive	ASCL2 (GeneID 430)
0.44	0.33	inactive	CHP1 (GeneID 11261)
0.95	0.65	inactive	DDB2 (GeneID 1643)
